# Results of single-concentration screens

Sequences of proteins named here, by UniProt entry; tags and fusion partners are left off. Residues count along the entry.
UniProt I6X8D2, whole entry: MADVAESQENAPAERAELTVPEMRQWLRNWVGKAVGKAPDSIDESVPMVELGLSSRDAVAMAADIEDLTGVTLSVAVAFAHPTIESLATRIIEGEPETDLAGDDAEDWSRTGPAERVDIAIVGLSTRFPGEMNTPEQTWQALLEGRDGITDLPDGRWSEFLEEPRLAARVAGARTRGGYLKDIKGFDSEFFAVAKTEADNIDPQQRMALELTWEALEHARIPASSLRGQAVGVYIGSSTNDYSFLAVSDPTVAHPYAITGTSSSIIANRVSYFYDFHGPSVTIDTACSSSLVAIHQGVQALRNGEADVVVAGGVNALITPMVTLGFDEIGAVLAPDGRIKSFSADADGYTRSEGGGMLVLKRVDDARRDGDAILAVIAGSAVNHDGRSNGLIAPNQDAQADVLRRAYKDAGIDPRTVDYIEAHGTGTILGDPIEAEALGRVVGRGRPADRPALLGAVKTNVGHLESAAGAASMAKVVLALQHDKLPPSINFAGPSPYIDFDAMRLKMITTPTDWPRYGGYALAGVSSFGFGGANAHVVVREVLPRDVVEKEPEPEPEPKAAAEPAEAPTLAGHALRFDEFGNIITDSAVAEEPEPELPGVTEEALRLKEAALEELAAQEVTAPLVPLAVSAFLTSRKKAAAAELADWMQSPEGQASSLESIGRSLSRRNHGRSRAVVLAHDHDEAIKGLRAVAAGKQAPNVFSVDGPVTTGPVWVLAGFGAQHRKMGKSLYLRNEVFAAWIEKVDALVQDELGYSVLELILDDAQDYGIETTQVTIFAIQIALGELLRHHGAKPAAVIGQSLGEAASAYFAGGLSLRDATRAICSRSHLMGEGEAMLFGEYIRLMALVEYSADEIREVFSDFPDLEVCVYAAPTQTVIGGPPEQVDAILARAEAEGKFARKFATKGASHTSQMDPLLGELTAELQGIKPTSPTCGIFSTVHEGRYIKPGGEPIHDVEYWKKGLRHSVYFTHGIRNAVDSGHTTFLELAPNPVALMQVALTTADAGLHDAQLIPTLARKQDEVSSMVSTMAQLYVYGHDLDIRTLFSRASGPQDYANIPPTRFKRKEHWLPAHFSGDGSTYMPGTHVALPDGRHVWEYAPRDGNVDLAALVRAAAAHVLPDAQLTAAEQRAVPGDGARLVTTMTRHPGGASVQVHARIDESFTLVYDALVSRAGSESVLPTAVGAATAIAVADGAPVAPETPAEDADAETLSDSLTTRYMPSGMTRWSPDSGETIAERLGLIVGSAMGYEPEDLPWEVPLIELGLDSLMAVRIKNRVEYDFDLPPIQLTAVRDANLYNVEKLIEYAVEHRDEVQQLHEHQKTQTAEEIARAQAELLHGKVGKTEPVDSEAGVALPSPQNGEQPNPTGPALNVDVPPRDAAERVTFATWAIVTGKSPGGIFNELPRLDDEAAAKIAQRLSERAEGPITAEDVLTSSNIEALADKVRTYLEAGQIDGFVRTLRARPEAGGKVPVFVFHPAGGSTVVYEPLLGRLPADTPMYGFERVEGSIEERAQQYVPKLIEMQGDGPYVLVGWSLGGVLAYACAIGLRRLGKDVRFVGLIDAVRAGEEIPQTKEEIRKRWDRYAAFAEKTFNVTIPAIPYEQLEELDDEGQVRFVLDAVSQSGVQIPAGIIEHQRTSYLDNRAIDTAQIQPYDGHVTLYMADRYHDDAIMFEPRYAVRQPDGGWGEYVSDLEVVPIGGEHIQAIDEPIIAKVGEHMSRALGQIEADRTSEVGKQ
UniProt Q8IDJ8, 1-583: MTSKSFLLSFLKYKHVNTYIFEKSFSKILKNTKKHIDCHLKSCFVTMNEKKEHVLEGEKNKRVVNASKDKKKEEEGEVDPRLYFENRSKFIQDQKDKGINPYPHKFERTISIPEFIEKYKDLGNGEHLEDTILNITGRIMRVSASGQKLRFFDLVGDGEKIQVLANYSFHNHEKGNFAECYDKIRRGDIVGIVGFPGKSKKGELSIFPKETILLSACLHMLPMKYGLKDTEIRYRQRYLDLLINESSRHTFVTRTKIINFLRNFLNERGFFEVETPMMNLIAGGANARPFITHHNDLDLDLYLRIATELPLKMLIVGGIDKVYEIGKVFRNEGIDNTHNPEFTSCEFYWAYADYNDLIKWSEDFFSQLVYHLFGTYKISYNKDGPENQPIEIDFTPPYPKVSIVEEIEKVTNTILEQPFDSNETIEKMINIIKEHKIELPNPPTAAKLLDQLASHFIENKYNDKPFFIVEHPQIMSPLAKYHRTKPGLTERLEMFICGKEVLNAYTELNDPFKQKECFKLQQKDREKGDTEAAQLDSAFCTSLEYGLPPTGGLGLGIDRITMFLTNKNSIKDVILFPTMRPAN
UniProt P9WNZ1, whole entry: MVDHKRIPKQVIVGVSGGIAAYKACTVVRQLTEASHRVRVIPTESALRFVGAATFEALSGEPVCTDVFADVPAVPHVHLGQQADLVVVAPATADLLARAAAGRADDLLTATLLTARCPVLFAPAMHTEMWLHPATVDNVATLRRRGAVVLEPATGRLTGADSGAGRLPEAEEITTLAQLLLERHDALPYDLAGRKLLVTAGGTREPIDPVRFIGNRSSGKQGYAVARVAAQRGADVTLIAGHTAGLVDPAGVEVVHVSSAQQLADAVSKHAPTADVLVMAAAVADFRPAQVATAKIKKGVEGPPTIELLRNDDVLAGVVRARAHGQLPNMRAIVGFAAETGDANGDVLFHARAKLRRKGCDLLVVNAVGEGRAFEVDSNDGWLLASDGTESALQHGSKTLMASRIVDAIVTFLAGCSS

Toxoplasma: 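Assay of Toxoplasma gondii numbers, read through their beta-galactosidase reporter with a colour substrate. Compounds at 10 µM. The record gives no direction; the compounds picked for IC50 retests had high values, so higher reads as fewer parasites. Size under these conditions: about 67,000 compounds, about 260 of them at 50% or above in at least one test.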
Pks13 thioesterase: 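Enzyme assay of the thioesterase domain of polyketide synthase 13; the read-out is not stated. Target: Polyketide synthase Pks13, Mycobacterium tuberculosis (UniProt I6X8D2). Compounds at 30 µM. Higher reads as stronger inhibition (inferred from which compounds were picked for retests). About 67,000 compounds were tested under these conditions; 0.46% (about 300) showed 50% or more at least once.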
PfKRS1: 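Enzyme assay of the cytosolic lysyl-tRNA synthetase in 384-well plates, read by luminescence. Target: Lysine-tRNA ligase, Plasmodium falciparum 3D7 (UniProt Q8IDJ8). Concentration: 30 µM. Direction is inferred from only a few compounds that gave an IC50; most scored high, so higher reads as stronger inhibition. Size under these conditions: about 69,000 compounds, about 49 of them at 50% or above in at least one test.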
CoaBC: 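Coenzyme A biosynthesis protein CoaBC, Mycobacterium tuberculosis (UniProt P9WNZ1). Enzyme assay of CoaBC with a phosphate dye (Biomol Green) read at 650 nm. Tested at 30 µM. Direction is inferred from only a few compounds that gave an IC50; most scored high, so higher reads as stronger inhibition. Most strong results did not repeat in a second test. Size under these conditions: about 67,000 compounds, about 40 of them at 50% or above in at least one test.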

Each number is a percent effect as filed.
The controls that fix the scale are not given in the record; negative values are as filed.
This is an unselected part of the compounds tested.
A dash means the value is not listed here; it may have been measured.

| structure | Toxoplasma | Pks13 thioesterase | PfKRS1 | CoaBC |
|---|---|---|---|---|
| `O=C(O)C(F)(F)F.O=C(c1cc[nH]n1)N1CCc2onc(COc3cccnc3)c2C1` | -8.922 | - | - | - |
| `Cn1cccc1C(O)CNC(=O)c1ccc(F)c(F)c1` (stereo not shown) | 13.64 | 16.08 | 1.579 | 3.435 |
| `O=C(NCCNc1ncccn1)c1ccc(Br)cc1` | 11.52 | -0.9404 | 1.111 | 2.477 |
| `CCC(=O)N1CCc2nc3cc(OC)c(OC)cc3c(=O)n2CC1` | 30.17 | -10.92 | 2.595 | -2.5 |
| `COCCS(=O)(=O)NCc1ccc(N(C)C)c(C)c1` | -3.905 | 11.85 | 5.503 | 4.531 |
| `CCN1CCC(NC(=O)CN2CCCC2Cn2nc(C)nc2C)CC1` (stereo not shown) | -29.91 | 2.509 | 0.8717 | -7.045 |
| `Cc1ccc(-c2cc(CNc3ncnc4c3CCNCC4)no2)cc1` | 59.71 | -6.561 | 1.479 | 1.456 |
| `CCOc1ccc(Cl)c(C(=O)NCc2ccc(C(=O)NC)cc2)n1` | -0.8271 | -9.994 | -1.641 | 4.922 |
| `CC(c1ccc(F)cc1)N1CCN(Cc2nccn2C)CC1` (stereo not shown) | -19.51 | 3.76 | 0.4077 | -5 |
| `CCN(CC)C1CCN(C(=O)c2cc(-n3cccn3)ccc2Cl)CC1` | 0.631 | -11.4 | 1.479 | 8.01 |
| `Cc1cc(C)cc(C(C)NC(=O)c2ccc(CS(C)(=O)=O)o2)c1` (stereo not shown) | 3.19 | - | 3.996 | -0.3165 |
| `CC(=O)N1CCCC(c2ccccn2)C1` (stereo not shown) | 2.393 | -19.95 | 0.03803 | -2.107 |
| `CNc1nc(CNC(=O)Nc2cccc(Cl)c2Cl)cs1` | -2.605 | -10.97 | 0.5008 | -0.8872 |
| `CN(C)S(=O)(=O)N1CCC(c2ccncn2)CC1` | -14.22 | 10.65 | 3.16 | -3.832 |
| `NC(=O)Cn1ccc(NC(=O)C2(c3cccc(F)c3)CCC2)n1` | 8.655 | -3.953 | -2.119 | 5.868 |
| `CN(Cc1cccc2ncccc12)C(=O)CCn1ccc(=O)[nH]c1=O` | -1.246 | -24.72 | 9.199 | 12.82 |
| `c1ccc(N2CCOC3(CCCN(c4ncccn4)C3)C2)nc1` (stereo not shown) | - | -5.475 | 3.876 | 1.114 |
| `O=c1[nH]c(CN2CCOC(Cn3cccn3)C2)nc2ccccc12` (stereo not shown) | 2.376 | 0.737 | 1.474 | 3.602 |
| `CS(=O)(=O)c1ccc(-c2cnc(C3CCCN3)cn2)cc1` (stereo not shown) | - | 0.6581 | 1.65 | -4.468 |
| `CN(CC(=O)N1CCCC1c1noc(C2CC2)n1)Cc1ccccc1` (stereo not shown) | -14.38 | -5.249 | 2.411 | 9.068 |
| `COCc1n[nH]c2c1CN(C(=O)c1ccncc1)C2` | - | -19.36 | 3.782 | - |
| `CCN1CC[C@]2(CN(C(=O)C3CCOCC3)C[C@H]2c2ccccc2)C1=O` | -9.278 | -2.342 | -0.8393 | 0.8333 |
| `CN(C(=O)COCc1ccccc1)C1CCN(CC2CCOC2)CC1` (stereo not shown) | -2.291 | -15.21 | 5.299 | -4.888 |
| `O=C(c1cccnc1)N1CCC2(CC1)CCN(c1ccsc1)C2=O` | - | -15.62 | -4.042 | 0.6337 |
| `Fc1cccc(-c2nccnc2C2CCCNC2)c1` (stereo not shown) | 2.387 | -5.527 | 1.808 | 10.01 |
| `Cc1ccc(CCNc2nccc(-c3cc(C(=O)O)ccn3)n2)o1` | 1.671 | -7.909 | 6.286 | -7.613 |
| `COC(=O)c1ccc(N2CCN(C(=O)c3ccco3)C(C)C2)cc1` (stereo not shown) | 0.351 | 6.422 | -1.727 | 6.122 |
| `COCC1COCCC12CCN(S(=O)(=O)c1ccc(C)cc1)CC2` (stereo not shown) | -17.29 | -10.42 | 1.232 | 0.8485 |
| `Cn1cnc2c1CCN(CC(=O)N(Cc1ccsc1)C1CC1)C2` | 4.104 | -65.9 | 2.082 | -3.415 |
| `Clc1ccccc1Cn1cc(CNC2CCc3ncnn3C2)cn1` (stereo not shown) | -2.905 | -13.82 | -0.6431 | -8.579 |
| `N#Cc1cccc(N2CCCC3(C2)CN(c2ncccn2)CCO3)n1` (stereo not shown) | - | -38.12 | 11.8 | - |
| `CC(C)Nc1cc(N2CCC(n3cc(C4CCCC4)nn3)CC2)ncn1` | 15.06 | -15.39 | 1.455 | 7.744 |
| `Cc1nn(C)c(N2CCOCC2)c1CNC(C)c1cccs1` (stereo not shown) | -12.97 | -3.358 | 1.548 | -0.9126 |
| `CC(NCc1cnc(N2CCOCC2)nc1)c1ccc(Cl)s1.Cl` (stereo not shown) | -0.8673 | - | - | - |
| `COc1cccc(C(=O)N2CCCC(C(=O)CCc3ccccc3)C2)c1` (stereo not shown) | -1.642 | -30.59 | 2.399 | 7.463 |
| `O=C(O)C(F)(F)F.O=C(O)C(F)(F)F.[H][C@@]12CN(CCOC)CCO[C@]1([H])CN(Cc1ccc(C)o1)C2` | 11.7 | - | - | - |
| `[H][C@@]12CNC(=O)N1CCN(Cc1cccc(OC)n1)C2` | 3.325 | - | - | - |

For reference, 3 entries once more:

structure,Toxoplasma,Pks13 thioesterase,PfKRS1,CoaBC
Cc1ccc(CCNc2nccc(-c3cc(C(=O)O)ccn3)n2)o1,1.671,-7.909,6.286,-7.613
COCc1n[nH]c2c1CN(C(=O)c1ccncc1)C2,-,-19.36,3.782,-
Clc1ccccc1Cn1cc(CNC2CCc3ncnn3C2)cn1 (stereo not shown),-2.905,-13.82,-0.6431,-8.579

From ChEMBL document CHEMBL3988442, “University of Dundee, Small-Polar-MMV Screening Library” (2021).